The results are deposited in PubChem (AID1508618; NCATS, 2020).

By UniProt entry, the sequences of proteins in these tests, tags left out.
UniProt Q99828, whole entry, looked up, target on record: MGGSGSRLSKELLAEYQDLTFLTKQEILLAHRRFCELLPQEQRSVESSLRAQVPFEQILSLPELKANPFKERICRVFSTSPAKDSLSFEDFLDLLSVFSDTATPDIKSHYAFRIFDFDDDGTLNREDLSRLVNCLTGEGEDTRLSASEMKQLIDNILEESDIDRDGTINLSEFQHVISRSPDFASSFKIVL

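A polarization binding test checking whether compounds compete the fluorescent alphaIIb peptide away from the GST-tagged human calcium and integrin-binding protein 1. Each compound was run as a dilution series from about 0.46 to 114 µM. The number is the AC50 from the fitted inhibition curve, so a lower value means a more potent competitor. Calls follow the curve class and activity score, with scores from 1 to 39 filed as inconclusive; every row here is inconclusive, including some full inhibitor curves.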

Values are in nM. All entries here are filed as inconclusive. Only part of the assay is shown, chiefly results filed as inconclusive. Potencies fitted to partial, single-point or poorly fitting curves are rough. Some entries filed as inconclusive have a full curve. Activity scores are not listed here.

structure: O=c1[nH]c(=O)c2nc3ccccc3nc2[nH]1
fitted potency (nM): 22387
remark: inhibitor, full curve

structure: O=Nc1c(-c2c(O)[nH]c3ccccc23)[nH]c2ccccc12
fitted potency (nM): 3548
remark: inhibitor, full curve

structure: C=Cc1c(C)c2cc3[nH]c(cc4nc(cc5nc(cc1[nH]2)C(C)=C5CCC(=O)O)C(CCC(=O)O)=C4C)c(C)c3C=C
fitted potency (nM): 44668
remark: inhibitor, partial curve

structure: Oc1cc(O)cc(/C=C/c2ccc(O)c(O)c2)c1
fitted potency (nM): 3162
remark: inhibitor, full curve

structure: Oc1ccc2ccccc2c1SSc1c(O)ccc2ccccc12
fitted potency (nM): 3162
remark: inhibitor, full curve, poor fit

structure: CCOC(=O)N1CCN(/[N+]([O-])=N/Oc2ccc([N+](=O)[O-])cc2[N+](=O)[O-])CC1
fitted potency (nM): 35481
remark: inhibitor, partial curve, poor fit

structure: Nc1c(S(=O)(=O)O)cc(Nc2ccc(Nc3nc(Cl)nc(Nc4ccc(S(=O)(=O)O)cc4)n3)c(S(=O)(=O)O)c2)c2c1C(=O)c1ccccc1C2=O
fitted potency (nM): 1412
remark: inhibitor, full curve

structure: Cc1ccc(C(=O)Nc2ccc(S(=O)(=O)O)c3cc(S(=O)(=O)O)cc(S(=O)(=O)O)c23)cc1NC(=O)c1cccc(NC(=O)Nc2cccc(C(=O)Nc3cc(C(=O)Nc4ccc(S(=O)(=O)O)c5cc(S(=O)(=O)O)cc(S(=O)(=O)O)c45)ccc3C)c2)c1
fitted potency (nM): 1585
remark: inhibitor, full curve, poor fit

structure: O=[N+]([O-])c1ccc2c(c1)S(=O)(=O)C=C2
fitted potency (nM): 707.9
remark: inhibitor, full curve, poor fit

structure: CCc1ccc(/C=C2/SC(=S)NC2=O)cc1
fitted potency (nM): 15848
remark: inhibitor, full curve

structure: COC(=O)C1=C(C)NC(C)=C(C(=O)OCCN(C)Cc2ccccc2)C1c1cccc([N+](=O)[O-])c1 (centres undefined)
fitted potency (nM): 3548
remark: inhibitor, full curve

The first 2 entries again:

{"structure": "O=c1[nH]c(=O)c2nc3ccccc3nc2[nH]1", "fitted potency (nM)": "22387", "remark": "inhibitor, full curve"}
{"structure": "O=Nc1c(-c2c(O)[nH]c3ccccc23)[nH]c2ccccc12", "fitted potency (nM)": "3548", "remark": "inhibitor, full curve"}